Results published in PMC9372576.

Chains of the proteins cited; added tags and fusions are not shown. Lines headed by an entry give the natural chain unless they say otherwise; changes in a name come on top.
UniProt Q9HI16: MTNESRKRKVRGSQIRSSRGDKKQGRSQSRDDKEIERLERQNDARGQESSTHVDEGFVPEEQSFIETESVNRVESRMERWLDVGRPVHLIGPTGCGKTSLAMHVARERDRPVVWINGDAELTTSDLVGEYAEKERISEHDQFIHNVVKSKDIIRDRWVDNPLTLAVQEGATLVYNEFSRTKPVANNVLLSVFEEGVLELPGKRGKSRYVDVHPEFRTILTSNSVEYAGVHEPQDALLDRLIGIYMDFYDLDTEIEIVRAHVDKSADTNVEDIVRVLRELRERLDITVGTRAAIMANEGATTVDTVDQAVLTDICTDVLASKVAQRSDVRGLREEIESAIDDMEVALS

Experiments:
Test in all cases: pull-down; CBD-tagged bait and one untagged prey co-produced in Hfx. volcanii CBDX/Y transformants; lysate in 2.5 M KCl buffer pH 8.0 bound to cellulose (Avicel), six washes, elution with ethylene glycol, Western analysis with Gvp antisera
[1] = biological target: T1, CBDA (Halobacterium salinarum) (UniProt P08958)
T1 sequence: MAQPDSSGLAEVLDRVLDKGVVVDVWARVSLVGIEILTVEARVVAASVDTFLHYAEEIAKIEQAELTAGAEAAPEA

[2] = biological target: T2, CBDC (Halobacterium salinarum) (UniProt P24574)
T2 sequence: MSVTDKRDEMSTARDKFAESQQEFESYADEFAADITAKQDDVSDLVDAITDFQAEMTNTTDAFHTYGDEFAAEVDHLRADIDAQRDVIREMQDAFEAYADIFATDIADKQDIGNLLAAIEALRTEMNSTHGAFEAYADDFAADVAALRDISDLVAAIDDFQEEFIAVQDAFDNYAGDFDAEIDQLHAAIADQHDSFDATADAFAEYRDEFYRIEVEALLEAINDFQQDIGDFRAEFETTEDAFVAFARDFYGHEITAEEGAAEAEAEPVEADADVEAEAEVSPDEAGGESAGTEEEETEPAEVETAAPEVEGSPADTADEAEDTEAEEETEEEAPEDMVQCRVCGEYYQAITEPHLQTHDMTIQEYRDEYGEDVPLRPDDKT

[3] = biological target: T3, CBDO (Halobacterium salinarum) (UniProt O51968)
T3 sequence: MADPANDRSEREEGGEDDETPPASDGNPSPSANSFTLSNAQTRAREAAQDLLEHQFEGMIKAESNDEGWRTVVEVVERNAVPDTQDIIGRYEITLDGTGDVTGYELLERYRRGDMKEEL

binding [1]: binds
binding [2]: binds
binding [3]: binds
Substance: GvpN (from UniProt Q9HI16)

Results are given in words; binding and its absence hold for the method and conditions named. Binding seen in cells or lysates may run through a third protein. Binding calls can cover weak binding; strength is not graded here.
